The target of the assay is T1, VAP27-1 (TAP-tagged bait) (Arabidopsis) (UniProt Q8VZ95).
T1 sequence: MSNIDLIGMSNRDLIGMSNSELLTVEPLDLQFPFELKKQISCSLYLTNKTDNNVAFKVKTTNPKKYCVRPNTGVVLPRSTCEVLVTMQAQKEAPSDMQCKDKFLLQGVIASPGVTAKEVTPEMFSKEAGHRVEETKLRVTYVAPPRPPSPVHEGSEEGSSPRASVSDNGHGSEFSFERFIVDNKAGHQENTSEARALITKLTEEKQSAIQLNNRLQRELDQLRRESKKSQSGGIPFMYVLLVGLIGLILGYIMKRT
As to the kind of experiment: affinity purification with mass spectrometry.

Results are given in words; binding and its absence hold for the method and conditions named. Binding seen in cells or lysates may run through a third protein. These calls come from enrichment with a bait or labelling near it, and not all partners need be listed. Where a sequence is shown, tags or fusion partners need not be part of it.

As for “TraB1a (endogenous, Arabidopsis cell culture) (from UniProt F4I8P4)”, the binding result is “binds”.

The record behind these values is paper doi:10.1101/2022.02.25.481886.
